Experimental data from patent publication US20170355959A1, “METHODS FOR MOBILISING POPULATIONS OF STEM CELLS” (Imperial Innovations Limited, priority 2014, published 2017).

Test system: CFU-Fs (MSPCs)
Assay: Mobilization of MSPCs into peripheral blood (CFU-F assay)
Type: in vivo, mice
Details: inhibitor or antagonist given 60 minutes prior to BRL 37344, once daily for 4 days

## COc1ccc2cc([C@H](C)C(=O)O)ccc2c1 [Naproxen]
  effect on CFU-F mobilization induced by 4 day beta 3 adrenergic agonist and CXCR4 antagonist: significant increase in the mobilization of both HSPCs or CFU-Fs
